# The list is a part of this screen's results and no random one: it gathers tests that were run many times, whatever their T/C, doses with no T/C, and many T/C values between a quarter and a half above the control. Other doses and runs of a compound stand elsewhere. T/C gives the treated animals as a percentage of the vehicle group. Some doses have a count of surviving animals in place of a T/C: the source holds a T/C of zero for them, seemingly a mark for toxic or unscored doses. Some doses without a T/C left all or most animals alive at the check, yet need not have been tolerated: survival well below the control is almost never listed, so the zero probably covers shortened survival too. Survivors were counted at the toxicity check, usually on the fifth day, unless a day is given; later deaths do not show. Schedules are NCI's codes, taken here to give the interval after Q, in days (D) or hours (H), and the number of doses after X. Some entries were tested several times; the values are given in rising order. Where survival is the endpoint, this PubChem deposit counts one and a half times the control or more as active, and values a quarter to a half above the control carry no call in these data; other NCI protocols may use other cut-offs. Some T/C values carry the count of animals alive at the toxicity check (mostly the fifth day); where none is given, no animal had died by that day.
# System: P388 leukemia ip, CD2F1 mice, survival T/C
# Assay: NCI In Vivo Anticancer Drug Screen. Data for tumor model P388 Leukemia (intraperitoneal) in CD2F1 (CDF1) mice
# Conditions: T/C endpoint: median survival time, higher T/C = longer survival
# [1] = dose: 6.25 mg/kg/injection, schedule: Q01DX009 (ip), vehicle: Klucel (hydroxypropylcellulose) (HPC)
# [2] = dose: 12.5 mg/kg/injection, schedule: Q01DX009 (ip), vehicle: Klucel (hydroxypropylcellulose) (HPC)
# [3] = dose: 25.0 mg/kg/injection, schedule: Q01DX009 (ip), vehicle: Klucel (hydroxypropylcellulose) (HPC)
# [4] = dose: 50.0 mg/kg/injection, schedule: Q01DX009 (ip), vehicle: Klucel (hydroxypropylcellulose) (HPC)
# [5] = dose: 100.0 mg/kg/injection, schedule: Q01DX009 (ip), vehicle: Klucel (hydroxypropylcellulose) (HPC)
# [6] = dose: 240.0 mg/kg/injection, schedule: Q01DX005 (ip), vehicle: saline with Tween-80
# [7] = dose: 200.0 mg/kg/injection, schedule: Q01DX009 (ip), vehicle: Klucel (hydroxypropylcellulose) (HPC)
# [8] = dose: 100.0 mg/kg/injection, schedule: Q01DX009 (ip), vehicle: saline with Tween-80
# [9] = dose: 200.0 mg/kg/injection, schedule: Q01DX009 (ip), vehicle: saline with Tween-80
# [10] = dose: 400.0 mg/kg/injection, schedule: Q01DX009 (ip), vehicle: saline with Tween-80
# [11] = dose: 100.0 mg/kg/injection, schedule: Q01DX005 (ip), vehicle: Klucel (hydroxypropylcellulose) (HPC)
# [12] = dose: 200.0 mg/kg/injection, schedule: Q01DX005 (ip), vehicle: saline with Tween-80
# [13] = dose: 25.0 mg/kg/injection, schedule: Q01DX009 (ip), vehicle: saline
# [14] = dose: 50.0 mg/kg/injection, schedule: Q01DX009 (ip), vehicle: saline
# [15] = dose: 100.0 mg/kg/injection, schedule: Q01DX009 (ip), vehicle: saline
# [16] = dose: 200.0 mg/kg/injection, schedule: Q01DX009 (ip), vehicle: saline
# [17] = dose: 400.0 mg/kg/injection, schedule: Q01DX009 (ip), vehicle: Klucel (hydroxypropylcellulose) (HPC)
# [18] = dose: 3.12 mg/kg/injection, schedule: Q01DX009 (ip), vehicle: saline
structure (smiles),measurement,setting,value
[Cl][Pt+2][Cl].[NH-]c1cccc(C(F)(F)F)c1.[NH-]c1cccc(C(F)(F)F)c1,T/C,[1],129 % of control
same,T/C,[2],127 and 132 % of control
same,T/C,[3],126 % of control
same,survivor count,[4],2 of 6
same,survivor count,[5],0 of 6
COc1cccc(NCNC2Nc3ccccc3N2)c1,survivor count,"dose: 60.0 mg/kg/injection, schedule: Q01DX005 (ip), vehicle: saline with Tween-80",6 of 6
same,survivor count,"dose: 120.0 mg/kg/injection, schedule: Q01DX005 (ip), vehicle: saline with Tween-80",6 of 6
same,survivor count,[6],6 of 6
Nc1nc(N)c2c(ccc3nc(-c4ccccc4)c(-c4ccccc4)nc32)n1,survivor count,"dose: 400.0 mg/kg/injection, schedule: Q01DX001 (ip), vehicle: saline with Tween-80",6 of 6
Cc1ccc(S(=O)(=O)OCOS(=O)(=O)c2ccc(C)cc2)cc1,T/C,[7],149 % of control
CC(C)COC1CC(C)(C)c2c(-c3ccccc3)nn(-c3ccccc3)c2O1 (stereo unspecified),survivor count,[8],6 of 6
same,survivor count,[9],1 of 6
O=[N+]([O-])c1cccnc1S(=O)(=O)c1ccccn1,survivor count,[3],0 of 6
same,survivor count,[4],6 of 6
same,survivor count,[5],0 of 6
same,survivor count,[7],0 of 6
C=CCC1OC(COC(=O)c2ccccc2)C(OC(=O)c2ccccc2)C1OC(=O)c1ccccc1 (stereo unspecified),T/C,"dose: 178.0 mg/kg/injection, schedule: Q01DX005 (ip), vehicle: Klucel (hydroxypropylcellulose) (HPC)",126 % of control
CC1CC(C)(C)N=C(Cc2ccccc2)O1 (stereo unspecified),survivor count,[10],0 of 6
N#CC(C#N)=NNc1ccc2cn[nH]c2c1,T/C,[11],129 and 133 % of control
same,survivor count,[11],5 of 5
same,survivor count,"dose: 200.0 mg/kg/injection, schedule: Q01DX005 (ip), vehicle: Klucel (hydroxypropylcellulose) (HPC)",0 of 5
N=C(N)c1ccc(N=Nc2ccc(N)cc2N)cc1,survivor count,"dose: 240.0 mg/kg/injection, schedule: Q01DX005 (ip), vehicle: Klucel (hydroxypropylcellulose) (HPC)",3 of 6
CCCCS(=O)(=O)CCC(N)C(=O)O (stereo unspecified),survivor count,[6],0 of 6
CN(C)CCCN1C(=O)C2CCC(C)(C1=O)C2(C)C (stereo unspecified),survivor count,[12],0 of 6
CCCCCCCCCCC[CH2][Sn](=[S])[CH2]CCCCCCCCCCC,T/C,[13],89 and 100 % of control
same,survivor count,[13],6 of 6
same,T/C,[14],"91, 92, 95, 101 % of control"
same,survivor count,[14],6 of 6
same,T/C,[15],"89 [5 of 6 alive], 93, 95, 103, 109 % of control"
same,T/C,[16],"89, 92, 95, 96, 133 % of control"
Nc1nc(/C=C(/O)c2ccccc2)c2ncn(C3OC(CO)C(O)C3O)c2n1 (stereo unspecified),survivor count,[10],0 of 5
CCc1ccc(NC(=O)NC(=O)c2c(F)cccc2F)cc1,survivor count,[13],6 of 6
CC(=O)SCc1nc2ccccc2[nH]1,survivor count,[9],5 of 6
CC1CC[N-]C(CCC2CC(C)CC[N-]2)C1.CC1CC[N-]C(CCC2CC(C)CC[N-]2)C1.[Ni+2].[O-][Cl+3]([O-])([O-])O (stereo unspecified),survivor count,"dose: 200.0 mg/kg/injection, schedule: Q01DX001 (ip), vehicle: saline",2 of 6
same,survivor count,"dose: 400.0 mg/kg/injection, schedule: Q01DX001 (ip), vehicle: saline",0 of 6
O=C(O)c1cccc(O)c1O,survivor count,"dose: 400.0 mg/kg/injection, schedule: Q01DX009 (ip), vehicle: saline",0 of 6
CN(C)C(=S)SSC(=S)N(C)C,survivor count,[7],2 of 6
same,survivor count,[17],0 of 6
COc1cc2c(cc1O)c[n+](C)c1c3cc(OC)c(OC)cc3ccc21,T/C,"dose: 15.6 mg/kg/injection, schedule: Q01DX009 (ip), vehicle: other",129 % of control
O=c1nc2n(c3ncccc13)CC=NN2,survivor count,[6],3 of 6
Cn1cnc([N+](=O)[O-])c1Sc1ccncn1,T/C,[15],125 % of control
same,T/C,[16],131 % of control
COC(=O)C(=O)C(C(=O)c1ccc(F)cc1)c1nc2n(c1O)C(=N)N=N2 (stereo unspecified),survivor count,[6],6 of 6
C=C1CC/C=C(/C)C(=O)C(OC(C)=O)C2C1CC2(C)C (stereo unspecified),survivor count,"dose: 56.0 mg/kg/injection, schedule: Q01DX009 (ip), vehicle: saline + alcohol",2 of 6
CCOC(=O)CNC(=O)Sc1ccc(C(C)(C)C)cc1C,T/C,"dose: 200.0 mg/kg/injection, schedule: Q01DX005 (ip), vehicle: saline + Tween-80 + alcohol",127 % of control
COS(C)=O (stereo unspecified),survivor count,[16],1 of 6
CCCCCC(C[N+](C)(C)C)C(=O)/C=C/c1ccc(Cl)c(Cl)c1 (stereo unspecified),survivor count,[13],2 of 6
same,survivor count,[14],3 of 6
Cc1csc2ncnc(N)c12,survivor count,"dose: 400.0 mg/kg/injection, schedule: Q04DX003 (ip), vehicle: Klucel (hydroxypropylcellulose) (HPC)",3 of 6
C[CH](C)[Sn](=[O])[CH](C)C,survivor count,"dose: 6.25 mg/kg/injection, schedule: Q01DX009 (ip), vehicle: suspension in saline",1 of 6
same,survivor count,"dose: 12.5 mg/kg/injection, schedule: Q01DX009 (ip), vehicle: suspension in saline",0 of 6
same,survivor count,"dose: 25.0 mg/kg/injection, schedule: Q01DX009 (ip), vehicle: suspension in saline",0 of 6
same,survivor count,[14],0 of 6
same,survivor count,[15],0 of 6
same,survivor count,[16],0 of 6
C=CC(=NC(C)(C)C)Nc1ccccc1C,survivor count,"dose: 1.56 mg/kg/injection, schedule: Q01DX009 (ip), vehicle: saline",6 of 6
same,T/C,[18],"98, 100, 126 % of control"
same,survivor count,[18],6 of 6
same,T/C,"dose: 6.25 mg/kg/injection, schedule: Q01DX009 (ip), vehicle: saline","93, 94, 111, 125 % of control"
same,survivor count,"dose: 12.5 mg/kg/injection, schedule: Q01DX009 (ip), vehicle: saline",2 of 6
same,survivor count,[13],0 of 6
same,survivor count,"dose: 50.0 mg/kg/injection, schedule: Q01DX009 (ip), vehicle: saline with Tween-80",0 of 6
same,survivor count,[14],0 of 6
same,survivor count,[8],0 of 6
same,survivor count,[9],0 of 6
CCN(CC)C(=O)Cn1cc([N+](=O)[O-])sc1=NC(=O)c1ccco1,survivor count,"dose: 400.0 mg/kg/injection, schedule: Q01DX001 (ip), vehicle: Klucel (hydroxypropylcellulose) (HPC)",1 of 6
CC1(c2cccc[n+]2Cc2ccc(Cl)c(Cl)c2)OCCO1,survivor count,"dose: 50.0 mg/kg/injection, schedule: Q01DX005 (ip), vehicle: saline",3 of 5
CC1=Nc2ccc(C)cc2N=C(C)C1,survivor count,[16],3 of 6
CCCC[n+]1c(/C=C\c2c(OC)cc(OC)cc2OC)ccc2ccccc21,T/C,"dose: 0.78 mg/kg/injection, schedule: Q01DX009 (ip), vehicle: Klucel (hydroxypropylcellulose) (HPC)",125 and 146 % of control
same,survivor count,"dose: 1.56 mg/kg/injection, schedule: Q01DX009 (ip), vehicle: Klucel (hydroxypropylcellulose) (HPC)",0 of 6 and 5 of 6
same,survivor count,"dose: 3.12 mg/kg/injection, schedule: Q01DX009 (ip), vehicle: Klucel (hydroxypropylcellulose) (HPC)",0 of 6 and 2 of 6
same,survivor count,[1],0 of 6
same,survivor count,[2],0 of 6
same,survivor count,[3],0 of 6
same,survivor count,[4],0 of 6
same,survivor count,[5],0 of 6
same,survivor count,[7],0 of 6
same,survivor count,[17],0 of 6
CN(C)c1ccc(Cc2ccc(N(C)C)nc2)cn1,survivor count,[12],2 of 5
O=C(c1cccs1)C1SC(C(=O)c2cccs2)C2(O)c3cccc4cccc(c34)C12O (stereo unspecified),survivor count,"dose: 15.0 mg/kg/injection, schedule: Q01DX009 (ip), vehicle: Klucel (hydroxypropylcellulose) (HPC)",6 of 6
same,survivor count,"dose: 30.0 mg/kg/injection, schedule: Q01DX009 (ip), vehicle: Klucel (hydroxypropylcellulose) (HPC)",6 of 6

# — PubChem BioAssay AID330 (DTP/NCI, 2004)
